Assay: Caco-2 cell permeability assay (Transwell, ab and ba direction)
Format: in vitro ADME
Details: human, Caco-2, high-permeability (positive) control
Protocol: Caco-2 cells, originating from a human colorectal carcinoma were maintained in Dulbecco's modified Eagle's medium (DMEM) at 95 % humidity and 37 °C in an atmosphere of 5 % CO2, supplemented with 10 % (V/V) fetal bovine serum, 2 mM L-glutamine and 1 % non-essential amino acids (100x), 100 U/ml penicillin and 100 μg/ml streptomycin (all from Invitrogen/GIBCO, Ghent, Belgium). The Caco-2 cell intestinal model was used as a model for the gut mucosa to investigate the permeation of spilanthol. Caco-2 cells were seeded at a density of 2.6 · 10^5 cells/cm^2 cells for each Transwell (Corning Costar, New York, USA) membrane insert filter (0.4 μm pore size, 12 mm filter diameter) and cultivated in the described supplemented DMEM, also containing 100 units/ml penicillin and 100 μg/ml streptomycin. The medium was changed every second day. The cells were allowed to grow and differentiate for 21-29 days until monolayers were formed. […] Quantification of spilanthol was conducted using the UPLC-MS^2 method as described below. The apparent permeability coefficient (Papp in cm/s) of spilanthol was calculated from a non-sink equation. […] The efflux ratio is calculated as Papp,ba/Papp,ab, while the uptake ratio is calculated as Papp,ab/Papp,ba.

- Papp A→B at 120 min, 20 μM: 19.1 ×10⁻⁶ cm/s
Structure (SMILES): CC(C)NCC(O)COc1cccc2ccccc12 (stereo not shown) [Propranolol, propranolol, reference compound]

From paper PMC4907212, “Mucosal and blood-brain barrier transport kinetics of the plant N-alkylamide spilanthol using in vitro and in vivo models” (BMC Complementary and Alternative Medicine, 2016)
